Source: publication PMC7935911
Results are given in words; binding and its absence hold for the method and conditions named. In cells and extracts the contact can be indirect. Some results given as binding are weak or reduced against the parent protein; the word gives no strength.

The chains behind the UniProt entries cited, without tags or fusion partners.
UniProt Q02248: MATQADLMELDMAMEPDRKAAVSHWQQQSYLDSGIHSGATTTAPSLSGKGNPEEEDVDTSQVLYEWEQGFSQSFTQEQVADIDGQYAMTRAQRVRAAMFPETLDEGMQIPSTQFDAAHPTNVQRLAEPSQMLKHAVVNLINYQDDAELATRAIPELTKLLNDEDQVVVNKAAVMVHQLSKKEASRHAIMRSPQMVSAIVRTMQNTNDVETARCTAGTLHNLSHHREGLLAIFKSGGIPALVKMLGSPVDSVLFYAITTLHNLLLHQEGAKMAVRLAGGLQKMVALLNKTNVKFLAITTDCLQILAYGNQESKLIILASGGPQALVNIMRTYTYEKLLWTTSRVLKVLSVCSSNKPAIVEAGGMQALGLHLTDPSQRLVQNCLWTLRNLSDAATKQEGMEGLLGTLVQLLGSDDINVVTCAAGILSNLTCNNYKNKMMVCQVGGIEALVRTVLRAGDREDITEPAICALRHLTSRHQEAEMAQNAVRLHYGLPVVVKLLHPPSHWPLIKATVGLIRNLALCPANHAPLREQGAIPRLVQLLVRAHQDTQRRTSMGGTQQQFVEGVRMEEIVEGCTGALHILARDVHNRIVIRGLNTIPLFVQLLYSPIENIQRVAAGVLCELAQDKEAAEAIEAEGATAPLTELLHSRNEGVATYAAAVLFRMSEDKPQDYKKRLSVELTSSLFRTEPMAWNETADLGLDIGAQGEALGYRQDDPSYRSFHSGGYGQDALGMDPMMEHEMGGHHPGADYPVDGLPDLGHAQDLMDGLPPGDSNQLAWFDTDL
UniProt P27782: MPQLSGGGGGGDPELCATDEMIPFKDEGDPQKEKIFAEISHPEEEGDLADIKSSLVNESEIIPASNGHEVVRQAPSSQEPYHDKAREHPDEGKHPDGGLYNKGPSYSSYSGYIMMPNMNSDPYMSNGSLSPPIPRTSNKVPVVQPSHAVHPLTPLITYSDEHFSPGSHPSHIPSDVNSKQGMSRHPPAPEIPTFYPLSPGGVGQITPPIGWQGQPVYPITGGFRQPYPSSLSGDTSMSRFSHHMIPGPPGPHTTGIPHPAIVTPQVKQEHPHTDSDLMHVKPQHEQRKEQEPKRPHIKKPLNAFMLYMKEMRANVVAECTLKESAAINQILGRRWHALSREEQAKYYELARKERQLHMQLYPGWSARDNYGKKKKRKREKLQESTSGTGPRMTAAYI

B1: Type 2 transglutaminase (TG2) (enzyme, UniProt P21981 1-686)
chain: MAEELLLERCDLEIQANGRDHHTADLCQEKLVLRRGQRFRLTLYFEGRGYEASVDSLTFGAVTGPDPSEEAGTKARFSLSDNVEEGSWSASVLDQQDNVLSLQLCTPANAPIGLYRLSLEASTGYQGSSFVLGHFILLYNAWCPADDVYLDSEEERREYVLTQQGFIYQGSVKFIKSVPWNFGQFEDGILDTCLMLLDMNPKFLKNRSRDCSRRSSPIYVGRVVSAMVNCNDDQGVLLGRWDNNYGDGISPMAWIGSVDILRRWKEHGCQQVKYGQCWVFAAVACTVLRCLGIPTRVVTNYNSAHDQNSNLLIEYFRNEFGELESNKSEMIWNFHCWVESWMTRPDLQPGYEGWQAIDPTPQEKSEGTYCCGPVSVRAIKEGDLSTKYDAPFVFAEVNADVVDWIRQEDGSVLKSINRSLVVGQKISTKSVGRDDREDITHTYKYPEGSPEEREVFTKANHLNKLAEKEETGVAMRIRVGDSMSMGNDFDVFAHIGNDTSETRECRLLLCARTVSYNGVLGPECGTEDINLTLDPYSENSIPLRILYEKYSGCLTESNLIKVRGLLIEPAANSYLLAERDLYLENPEIKIRVLGEPKQNRKLVAEVSLKNPLSDPLYDCIFTVEGAGLTKEQKSVEVSDPVPAGDLVKARVDLFPTDIGLHKLVVNFQCDKLKSVKGYRNVIIGPA

Biological target: β-catenin (mouse (endogenous in MEFs)) (UniProt Q02248)
Assay: co-IP; nuclear extracts of MEFs (WT; for β-catenin/LEF1 also TG2 KO); 2 mg protein, 4 μg specific antibody, Dynabeads Protein G; lysis buffer 150 mM NaCl, 50 mM Tris-HCl pH 7.5, 2 mM EDTA, 2% NP-40; western blot

| Molecule | binding |
| --- | --- |
| LEF1 (from UniProt P27782 1-397) | binds |
| B1 | binds |
